# Source: patent publication US10010493B2, “Ester compound, and cosmetic component and cosmetic product each containing same” (Kokyu Alcohol Kogyo Co., Ltd., priority 2014, dated 2018)
# Test: Odor judgement of TCD esters
row,Compound,Odor
1,"CC(=O)OCC1CC2CC1C1CCCC21 (centres unmarked) [Synthesis Example A, tricyclo[5.2.1.0^2,6]deca-8-yl-methyl acetate, reference compound]",strong odor
2,"CC(C)C(=O)OCC1CC2CC1C1CCCC21 (centres unmarked) [TCDIB, tricyclo[5.2.1.0^2,6]deca-8-yl-methyl isobutanoate]",slight odor
